Experimental data as given in doi:10.1101/2025.09.27.678987.

Amino acid sequences for entries named in this document (tags omitted). A change or cut given only in a name is not applied to a line headed by its entry. Residues count along the entry.
UniProt Q8N371: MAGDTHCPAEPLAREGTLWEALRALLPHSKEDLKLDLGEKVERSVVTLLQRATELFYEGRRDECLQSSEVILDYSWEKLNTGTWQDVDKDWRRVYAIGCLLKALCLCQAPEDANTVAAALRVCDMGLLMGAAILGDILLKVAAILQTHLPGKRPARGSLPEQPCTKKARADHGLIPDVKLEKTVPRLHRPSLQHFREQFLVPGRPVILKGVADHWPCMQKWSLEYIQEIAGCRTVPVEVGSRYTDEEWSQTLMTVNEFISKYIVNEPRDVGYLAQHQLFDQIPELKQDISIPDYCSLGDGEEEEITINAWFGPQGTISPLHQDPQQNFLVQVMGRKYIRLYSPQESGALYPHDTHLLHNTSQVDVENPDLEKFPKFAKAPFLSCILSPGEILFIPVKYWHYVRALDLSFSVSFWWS
UniProt P02749, residues 20-345: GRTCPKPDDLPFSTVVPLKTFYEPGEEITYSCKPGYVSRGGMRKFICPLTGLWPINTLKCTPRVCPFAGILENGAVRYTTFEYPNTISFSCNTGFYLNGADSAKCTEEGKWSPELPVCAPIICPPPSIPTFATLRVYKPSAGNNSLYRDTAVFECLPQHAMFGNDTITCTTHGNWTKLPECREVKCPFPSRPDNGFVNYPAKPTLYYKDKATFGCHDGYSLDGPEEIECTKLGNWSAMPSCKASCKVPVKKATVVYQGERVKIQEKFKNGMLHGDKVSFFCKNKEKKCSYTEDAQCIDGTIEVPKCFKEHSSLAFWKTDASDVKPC
UniProt Q96LA8: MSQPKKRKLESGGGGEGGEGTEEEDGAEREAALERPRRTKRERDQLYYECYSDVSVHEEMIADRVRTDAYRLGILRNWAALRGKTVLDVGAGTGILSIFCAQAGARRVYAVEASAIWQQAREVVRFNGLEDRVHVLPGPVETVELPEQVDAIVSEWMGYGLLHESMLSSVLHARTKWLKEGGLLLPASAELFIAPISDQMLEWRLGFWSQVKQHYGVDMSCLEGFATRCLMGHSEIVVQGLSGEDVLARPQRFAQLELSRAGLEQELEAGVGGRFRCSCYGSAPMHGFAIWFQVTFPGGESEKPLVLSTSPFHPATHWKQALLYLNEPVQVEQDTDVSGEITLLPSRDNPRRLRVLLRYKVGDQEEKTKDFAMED

T1: Flag-myc-ISY1 (UniProt Q9ULR0)
T1 sequence: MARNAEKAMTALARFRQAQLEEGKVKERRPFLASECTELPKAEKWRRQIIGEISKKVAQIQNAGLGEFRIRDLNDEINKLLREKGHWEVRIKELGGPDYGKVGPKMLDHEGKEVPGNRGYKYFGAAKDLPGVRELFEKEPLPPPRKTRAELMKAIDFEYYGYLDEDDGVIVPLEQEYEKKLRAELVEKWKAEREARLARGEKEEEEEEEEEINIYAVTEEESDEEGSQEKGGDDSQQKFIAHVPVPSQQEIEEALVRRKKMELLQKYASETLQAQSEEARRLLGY

T2: ISY1 R3A (UniProt Q9ULR0)
T2 sequence: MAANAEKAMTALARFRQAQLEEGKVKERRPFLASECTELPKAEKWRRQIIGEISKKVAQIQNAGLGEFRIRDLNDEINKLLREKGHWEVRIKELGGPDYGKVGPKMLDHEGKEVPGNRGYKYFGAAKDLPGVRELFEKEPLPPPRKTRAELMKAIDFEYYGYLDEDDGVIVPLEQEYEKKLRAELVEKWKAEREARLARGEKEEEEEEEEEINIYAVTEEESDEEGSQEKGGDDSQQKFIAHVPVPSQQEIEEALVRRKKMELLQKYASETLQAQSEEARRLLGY

T3: ISY1 R3K (UniProt Q9ULR0)
T3 sequence: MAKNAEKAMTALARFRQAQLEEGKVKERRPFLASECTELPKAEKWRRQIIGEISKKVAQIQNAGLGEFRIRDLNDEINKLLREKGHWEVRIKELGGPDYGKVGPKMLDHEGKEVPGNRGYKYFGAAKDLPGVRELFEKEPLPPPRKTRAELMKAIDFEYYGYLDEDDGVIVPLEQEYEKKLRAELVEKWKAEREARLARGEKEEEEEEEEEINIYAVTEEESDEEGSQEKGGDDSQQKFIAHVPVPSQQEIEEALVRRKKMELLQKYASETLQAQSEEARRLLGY


Assays:
Test in all cases: affinity purification with mass spectrometry
[1] = target: T1, Flag-myc-ISY1
[2] = target: T2, ISY1 R3A
[3] = target: T3, ISY1 R3K
[4] = target: Flag-tagged H321A JMJD5 (human) (UniProt Q8N371)

| Molecule | binding [1] | binding [2] | binding [3] | binding [4] |
| --- | --- | --- | --- | --- |
| Flag-tagged WT JMJD5 (from UniProt Q8N371 1-416) (enzyme) | – | no binding | no binding | – |
| ISY1 (protein, UniProt Q9ULR0 1-285) MARNAEKAMTALARFRQAQLEEGKVKERRPFLASECTELPKAEKWRRQIIGEISKKVAQIQNAGLGEFRIRDLNDEINKLLREKGHWEVRIKELGGPDYGKVGPKMLDHEGKEVPGNRGYKYFGAAKDLPGVRELFEKEPLPPPRKTRAELMKAIDFEYYGYLDEDDGVIVPLEQEYEKKLRAELVEKWKAEREARLARGEKEEEEEEEEEINIYAVTEEESDEEGSQEKGGDDSQQKFIAHVPVPSQQEIEEALVRRKKMELLQKYASETLQAQSEEARRLLGY | – | – | – | binds |

Continued, values first:

| binding [1] | binding [2] | binding [3] | binding [4] | Molecule |
| --- | --- | --- | --- | --- |
| binds | – | – | – | Flag-tagged H321A JMJD5 (from UniProt Q8N371 1-416) (enzyme) |
| no binding | no binding | no binding | – | APOH (apolipoprotein H) (from UniProt P02749 20-345) |
| – | no binding | no binding | – | Protein Arginine N-methyltransferase 6 (PRMT6) (from UniProt Q96LA8 1-375) (enzyme) |

These are yes or no findings as the source states them, for the method shown. Binding seen in cells or lysates may run through a third protein. A yes stands for co-enrichment or nearness to the bait. Other partners may have been found. For part of these data: A no says only that the protein was not detected with the bait. For part of these data: Where a sequence is shown, tags or fusion partners need not be part of it.
